Source: publication doi:10.1101/824425
Where a chain is given by its changes, count along the chain named. No constants are given. Whether binding was seen depends on the method and setting. For some assays here: In cells and extracts the contact can be indirect. Some entries that bind do so weakly or less than the wild type. For some assays here: Sequences can lack the tags named with a protein.

T1: Myc-tagged HADHB (β-subunit of the mitochondrial trifunctional protein) (human) (UniProt P55084)
T1 sequence: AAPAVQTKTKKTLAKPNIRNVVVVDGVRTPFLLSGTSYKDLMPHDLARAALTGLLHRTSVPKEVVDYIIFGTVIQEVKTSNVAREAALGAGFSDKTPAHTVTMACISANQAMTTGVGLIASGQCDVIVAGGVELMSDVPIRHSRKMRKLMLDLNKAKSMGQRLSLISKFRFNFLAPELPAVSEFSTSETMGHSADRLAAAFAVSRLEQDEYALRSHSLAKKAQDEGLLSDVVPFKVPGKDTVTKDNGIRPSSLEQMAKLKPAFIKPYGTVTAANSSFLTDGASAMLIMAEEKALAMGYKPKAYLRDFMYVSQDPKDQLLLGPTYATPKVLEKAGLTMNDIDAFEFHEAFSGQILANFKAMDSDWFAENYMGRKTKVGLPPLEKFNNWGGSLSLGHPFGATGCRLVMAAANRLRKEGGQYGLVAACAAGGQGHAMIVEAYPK

T2: Purified, recombinantly-expressed human HADHB (AdooQ Bioscience AP4092) (human) (UniProt P55084)
T2 sequence: T1 sequence

T3: Myc-tagged HADHB (β-subunit of the mitochondrial trifunctional protein) (human), P55084
T3 chain: T1 sequence

B1: FLAG-MLS-viperin (residues 1-42 of viperin replaced by the mitochondrial localization sequence of human Tom70, residues 35-68) (enzyme, UniProt O94826 35-68; Q8WXG1 43-361)
chain: GLPRWQLALAVGAPLLLGAGAIYLWSRQQRRREAATKRRKQQLVLRGPDETKEEEEDPPLPTTPTSVNYHFTRQCNYKCGFCFHTAKTSFVLPLEEAKRGLLLLKEAGMEKINFSGGEPFLQDRGEYLGKLVRFCKVELRLPSVSIVSNGSLIRERWFQNYGEYLDILAISCDSFDEEVNVLIGRGQGKKNHVENLQKLRRWCRDYRVAFKINSVINRFNVEEDMTEQIKALNPVRWKVFQCLLIEGENCGEDALREAERFVIGDEEFERFLERHKEVSCLVPESNQKMKDSYLILDEYMRFLNCRKGRKDPSKSILDVGVEEAIKFSGFDEKMFLKRGGKYIWSKADLKLDW
B2: FLAG-MLS-viperinC83A (enzyme, UniProt O94826 35-68; Q8WXG1 43-361)
chain: B1 chain with C75A
B3: ΔN-viperin (viperin lacking the first 50 residues, the N-terminal amphipathic helix) (enzyme, UniProt Q8WXG1 51-361)
chain: LVLRGPDETKEEEEDPPLPTTPTSVNYHFTRQCNYKCGFCFHTAKTSFVLPLEEAKRGLLLLKEAGMEKINFSGGEPFLQDRGEYLGKLVRFCKVELRLPSVSIVSNGSLIRERWFQNYGEYLDILAISCDSFDEEVNVLIGRGQGKKNHVENLQKLRRWCRDYRVAFKINSVINRFNVEEDMTEQIKALNPVRWKVFQCLLIEGENCGEDALREAERFVIGDEEFERFLERHKEVSCLVPESNQKMKDSYLILDEYMRFLNCRKGRKDPSKSILDVGVEEAIKFSGFDEKMFLKRGGKYIWSKADLKLDW
B4: ΔN-viperinC83A (enzyme, UniProt Q8WXG1 51-361)
chain: B3 chain with C33A
B5: WT-viperin (localizes to the ER membrane), Q8WXG1 1-361 (enzyme)
chain: MWVLTPAAFAGKLLSVFRQPLSSLWRSLVPLFCWLRATFWLLATKRRKQQLVLRGPDETKEEEEDPPLPTTPTSVNYHFTRQCNYKCGFCFHTAKTSFVLPLEEAKRGLLLLKEAGMEKINFSGGEPFLQDRGEYLGKLVRFCKVELRLPSVSIVSNGSLIRERWFQNYGEYLDILAISCDSFDEEVNVLIGRGQGKKNHVENLQKLRRWCRDYRVAFKINSVINRFNVEEDMTEQIKALNPVRWKVFQCLLIEGENCGEDALREAERFVIGDEEFERFLERHKEVSCLVPESNQKMKDSYLILDEYMRFLNCRKGRKDPSKSILDVGVEEAIKFSGFDEKMFLKRGGKYIWSKADLKLDW

Tests used:
Experiment in all cases: co-IP
[1] = target: T1, Myc-tagged HADHB (β-subunit of the mitochondrial trifunctional protein) (human)
[2] = target: T2, Purified, recombinantly-expressed human HADHB (AdooQ Bioscience AP4092) (human)
[3] = target: T3, Myc-tagged HADHB (β-subunit of the …); conditions: remark: other sources report otherwise

Binder | binding [1] | binding [2] | further results
B1 | binds |  | 
B2 | binds |  | 
B3 |  | binds | 
B4 |  | binds | 
B5 |  |  | binding [3]: no binding
